Measured values: PMC8782181

Protein sequences, listed by entry. Tags and fused reporters are not part of them.
UniProt P53297: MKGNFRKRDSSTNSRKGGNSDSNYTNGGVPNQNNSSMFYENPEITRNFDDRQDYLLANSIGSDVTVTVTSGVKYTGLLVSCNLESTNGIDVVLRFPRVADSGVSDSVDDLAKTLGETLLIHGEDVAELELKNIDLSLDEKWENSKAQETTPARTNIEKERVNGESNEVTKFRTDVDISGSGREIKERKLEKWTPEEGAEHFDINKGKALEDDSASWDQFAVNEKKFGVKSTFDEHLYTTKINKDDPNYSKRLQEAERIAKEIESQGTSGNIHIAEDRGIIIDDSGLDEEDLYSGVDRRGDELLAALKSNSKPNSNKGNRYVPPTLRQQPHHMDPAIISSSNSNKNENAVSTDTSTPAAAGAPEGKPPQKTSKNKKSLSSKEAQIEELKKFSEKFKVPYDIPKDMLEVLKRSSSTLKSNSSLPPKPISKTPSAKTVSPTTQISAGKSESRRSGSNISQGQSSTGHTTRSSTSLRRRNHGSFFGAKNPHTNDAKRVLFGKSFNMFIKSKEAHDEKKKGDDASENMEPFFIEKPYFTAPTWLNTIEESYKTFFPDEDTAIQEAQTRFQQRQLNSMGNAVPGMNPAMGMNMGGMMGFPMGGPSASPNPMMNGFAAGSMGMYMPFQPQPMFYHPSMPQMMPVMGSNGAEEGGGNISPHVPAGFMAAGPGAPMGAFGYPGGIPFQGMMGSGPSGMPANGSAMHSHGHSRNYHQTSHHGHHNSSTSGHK

T1: Dcp1-myc (S. cerevisiae) (UniProt Q12517)
T1 sequence: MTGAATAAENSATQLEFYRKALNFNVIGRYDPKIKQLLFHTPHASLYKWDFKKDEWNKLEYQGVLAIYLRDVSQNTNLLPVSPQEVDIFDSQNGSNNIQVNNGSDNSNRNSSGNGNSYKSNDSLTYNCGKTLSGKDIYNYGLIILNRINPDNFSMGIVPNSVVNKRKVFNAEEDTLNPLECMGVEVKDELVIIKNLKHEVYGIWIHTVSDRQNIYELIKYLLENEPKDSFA


How the values were obtained:
Dcp1-myc (S. cerevisiae) = target: T1, Dcp1-myc (S. cerevisiae); assay: affinity purification with mass spectrometry; cells unstressed or glucose-depleted (10 min for Dcp1-myc, 60 min for Pbp1-myc), cross-linked with 0.8% formaldehyde; 20,000 g pellet of the lysate in Blob100 buffer (20 mM Tris-HCl pH 8, 100 mM NaCl, 1 mM MgCl2, 0.5% NP40) on anti-c-Myc magnetic beads, eluted with Myc peptide; label-free LC-MS/MS; hits are the proteins that cluster (Mfuzz) with the tagged bait across IP, pellet, supernatant, total and unbound fractions
Pbp1-myc (S. cerevisiae) = Pbp1-myc (S. cerevisiae) (UniProt P53297); assay: as above

Binder | binding (Dcp1-myc (S. cerevisiae)) | binding (Pbp1-myc (S. cerevisiae))
Hnm1 (protein, UniProt P19807 1-563) MSIRNDNASGGYMQPDQSSNASMHKRDLRVEEEIKPLDDMDSKGAVAADGEVHLRKSFSLWSILGVGFGLTNSWFGISTSMVAGISSGGPMMIVYGIIIVALISICIGTSLGELSSAYPHAGGQFWWSLKLAPPKYKRFAAYMCGSFAYAGSVFTSASTTLSVATEVVGMYALTHPEFIPKRWHIFVCFELLHLFLMFFNCYGKSLPIISSSSLYISLLSFFTITITVLACSHGKFNDAKFVFATFNNETGWKNGGIAFIVGLINPAWSFSCLDCATHMAFEVEKPERVIPIAIMGTVAIGFVTSFCYVIAMFFSIQDLDAVLSSTTGAPILDIYNQALGNKSGAIFLGCLILFTSFGCVIACHTWQARLCWSFARDNGLPLSRLWSQVNPHTGVPLNAHLMSCAWITLIGLLYLASSTAFQSLITGCIAFLLLSYIIPVICLLAKKRNIAHGPFWLGKFGFFSNIVLLGWTVFSVVFFSFPPVLPVTKDNMNYVCVVIVGYTAYSILYWKYKGKKEFHALEESENEQAEYSNNFDTIEDSREFSVAASDVELENEHVPWGKK | binds | binds
Lsm12 (protein, UniProt P38828 1-187) MSVSLEQTLGFRIKVTNVLDVVTEGRLYSFNSSNNTLTIQTTKKNQSPQNFKVIKCTFIKHLEVIGDKPSFNSFKKQQIKPSYVNVERVEKLLKESVIASKKKELLRGKGVSAEGQFIFDQIFKTIGDTKWVAKDIIILDDVKVQPPYKVEDIKVLHEGSNQSITLIQRIVERSWEQLEQDDGRKGG | binds | binds
Edc3 (protein, UniProt P39998 1-551) MSQFVGFGVQVELKDGKLIQGKIAKATSKGLTLNDVQFGDGGKSQAFKVRASRLKDLKVLTVASQSGKRKQQRQQQQQNDYNQNRGEHIDWQDDDVSKIKQQEDFDFQRNLGMFNKKDVFAQLKQNDDILPENRLQGHNRKQTQLQQNNYQNDELVIPDAKKDSWNKISSRNEQSTHQSQPQQDAQDDLVLEDDEHEYDVDDIDDPKYLPITQSLNITHLIHSATNSPSINDKTKGTVINDKDQVLAKLGQMIISQSRSNSTSLPAANKQTTIRSKNTKQNIPMATPVQLLEMESITSEFFSINSAGLLENFAVNASFFLKQKLGGRARLRLQNSNPEPLVVILASDSNRSGAKALALGRHLCQTGHIRVITLFTCSQNELQDSMVKKQTDIYKKCGGKIVNSVSSLESAMETLNSPVEIVIDAMQGYDCTLSDLAGTSEVIESRIKSMISWCNKQRGSTKVWSLDIPNGFDAGSGMPDIFFSDRIEATGIICSGWPLIAINNLIANLPSLEDAVLIDIGIPQGAYSQRTSLRKFQNCDLFVTDGSLLLDL | binds | binds
Mkt1 (protein, UniProt P40850 1-830) MAIKSLESFLFERGLVGSYAIEALNNCTLDIDVNHYVSRLLTNKREQYLDAIGGFPTSLKMYLESDLKIFKDFNITPIFVFNGGLTYNQLEASGHFTAASASASISSTTTSSSGTNATTRSNTESVLLQRSRGWTQWNNLISSNQNSYIDQPIQPQEPFRHNTTIDSKAYQNDLIAYFIEHGYMYQVAPYSSWFQLAYLLNSAYIDAIYGPTDCLMLDCVDRFILGMEFPNKEFRFIDRSRVMKDLGCTHEEFIDIAMAVGNDLQPTTLPPLQIYPVPQLFDIALEMVLNTGTNFYAYQLSTTLQNDSKENIQNYQRGISALRYMPVLKDTGKVELFVQEIVVSEEDSEKNNKDGKKSNLSSPSSASSSASPATTVTKNASEKLTYEKSSTKEVRKPRDIPNDVHDFIGQMLPHEYYFYRSIGLVTGKLFDAIVTGVYPEEPPLGGGSSTSYKKLVSKSVEIFKNKEINLLTQPINRYYQIKQIKQVKWYAANEPTTLTNRMSPSMFETINHLIVKTETSDEKEFSISEFITTINGSSNMAKDFISEKVIFPNSVPIESKLNSPFNLLSTNFLRLLVLLEFFTFDFKEKLLEPTRWGEVFLKLNELNIDSKYHESVIIFLVFLKCDVLKLDEEVQPPAPSALSQATLRSYPEESLYVLLITRVLTLFQVDQKPSNYHGPIDKKTLIFRDHLSFIKENLNELFEAVLISSLTSGEFNRLSLDNFGWARKIVRYLPFKLDSPNTIMAMMWEFFLQKYLHNGNAKNDALSLVATEFNTYKSTPNLDEQFVESHRFLLEISKVMQELNAAKLIDENVFKLFTKAVEFTTTALSS | binds | binds
Cdc73 (protein, UniProt Q06697 1-393) MANSLDRLREHLKNGDKLVLKNNEGQSTDDITKATMVETLSSDGSTQDSFPLNEETEIEIDGSLVQLRIIVHCWMNKDSSAADYLADCQNKQLTNVSFLQRTDLINWLSGNTESSQYLKAPGQKGETSDKVDIENKTLAGELSTVKSTTSASLENDSEVSDPVVVETMKHERILVDHNSALRGAKPINFGYLIKDAELKLVQSIKGSLRGSKLPPGHKGAHGRISKTNGSSGGPRKDPIILIPSAASSILTVANIKQFLLESKYVNPRNLPSVPNGLVNIEKNFERISRPIRFIIVDNTRMFTKPEYWDRVVAIFTTGHTWQFNNYQWNSPQELFQRCKGYYFHFAGDSVPQHVQQWNVEKVELDKNKRFKDVEVVRYFWHSLEKELISRGYR | binds | binds

More lines, now with the values ahead:

binding (Dcp1-myc (S. cerevisiae)) | binding (Pbp1-myc (S. cerevisiae)) | Binder
binds | binds | Pbp4 (protein, UniProt Q07362 1-185) MTTTSTTSVDGRTSSTLKATLSASGPNSNGPTPAVLPQKPKLTGWAQAAAKALPRQQQQQQQARKDDSVAVQPANTKTKTIASTAPPANIKGSSTANGSSTNKKFKRANKQPYNREEVRSYMHKLFQSYTAGEKSHSMKTYKQVLSETASGRVSTATDWGTVSSSKNKNKKYGCLSDIAKVLRNQ
binds | binds | Svl3 (protein, UniProt Q03088 1-825) MSSSSLRVLAIGNNPNILFYTSRFQLAKNIDLYHVNDSKSCQFEIETEYYGKDRFELENHFTSIEHLTEALSSKSSEAVFDIIIMSAPSLQELSSLASKLTSIIDSNTKIFLESSGFIQLEPFVKLSMESPHVNVFSILTDLDIRQIGPNHFKHFPSTAKENTIYLGESKSSTEKYSSGVITLLTTFEKLFAKLFSNIKINLCNFSSIEFLSQQWKLAISRICFDPLLIMFEQENPSDLDQQIIAKPLISGLVTEIITVAKTMGARLNSSHDNENSLLSLWKNSYHSTNKPPALVYHFIHQTTPLNIDILLLQTILLADDFGIKTPYLEFLYSVLSQFERLNSGKSKWFIRSDEKTQILQSLQKSQKNESALQTQITSLQGQISKLRQELLMQAKQHEMETNELKEKHQVALKAQAQAQAQAQSQAQTSIEALTPTEATNQSDTNEYKATGTPNLRDIEDMALYSVNYGDSPVRSPPPVVSSQPQMNSPLSSHSQTFGENNGTNDKLLQERELQLRKKELELQERELEFQKRALQQQRFNNSNNSIPRKPSFPQLQQSANVRSNSRGMHGTNGAMSQPASAGNFVDPISSSIAAYDPQQPPSLPLQQPQQSVQVQPFHSHSIKPTSRKNRNSNMPNIGNPSSINMSDFGRPPNNSSQTRLNSMPTHSIVNQNRLRSQQSKNKLNMPHATNPNNTFNQVPAPSLNNHVPTQRQFSSSTMIEVTNNNNKVNNSSSNPDISTNSVVHNAMQFTNTNNNTSSTVDINDPKNIAPPPTTSVSAPSTPTLSSSSQMANMASPSTDNGDNEEKNGGKKKRFGLFKKKNKSKK
binds | binds | Syh1 (protein, UniProt Q02875 1-849) MNPINSLAFDLHSVKLADANSDTAALSNSNTPTMNNAALLQRPSSIMDSIGVQRVPSPFVPGSNAISGASTVPFNAYDAEITGSPLQISANQENNSAFSAASSNLHMNASSPSVLNKPSSTFPNVAPYLYNATGPAPNVGNQPPPPGIESQWKYIDSNGNIQGPFGTNNMSQWYQGGYFTPTLQICRLATSPEPFGVNDRFIRLGELTTLVNNYQDPFVAFDFIVIRALNAVPLVAPTSSEKQKVESRDLIPVADVHSDDFTYEEILGLKFEDGSYYHETQVWVPVDGRHITKVDRIPKISAYTAPLSTTSSRSNKTTSSHEEKVPSHEEASPEEQEVFSEEGRTVSNITNEEESIVKNPTKQEEESRGSEKEQNILDQVQPEIEEVDRKDVISTADEPKSKDTPQMTSEEQKRFAKAELMAQKLLEEQQRQEEEKKRREEQRKLKKEKKLKQKQKKEEEKLKKKKKEEGKLEKEKQKELLNNILTGDTETPSSENTATSITTNLAPWANKKPEGAVYNQISSALEDLKKENSSKKEKKPNRTQLDREQALKLQKEILSSAQIPKTQTGSAWGIKPQQPIKVDIKGELMKDSTKINSQSKINKANNGDIKPDSTFIEEQKKLWEQVQKKTKKFNRASSLDDFISRTPSPSSSALNSSNTSNAWTTVSSKSTTHIASTMPVAGNQSKSYISLDTLRSSGGLSTATKTKMSDKSKQIGSSTSIPTLKARQVKPSRIPAYPGNASVSKRQEFLRWCRSQLKLNTGVQPDNVLEMLLSLPPGSESKEIIADTIYSYSSTMDGRRFATDFIKKRLECEEEINDPLSWSEVLAMPEGSSEDWEFQVVGKKKGKRF
binds | binds | Pbp2 (protein, UniProt P38151 1-413) MSTETTKPSITTTPTTVLVSPNTLKRKKGEDTSEEQLEAEIKRVALKDADSHSDNDHDSPDNVPSDVHLRMLCLVKHASLIVGHKGATISRIKSETSARINISNNIRGVPERIVYVRGTCDDVAKAYGMIVRALLEEHGNEDNGEDIEISINLLIPHHLMGCIIGKRGSRLREIEDLSAAKLFASPNQLLLSNDRILTINGVPDAIHIATFYISQTLLNFQMESPQKNVKRSIYYQPTQFNSVLIDHSQPNTIFHQRNHQYHPSDKLLSYKPNKNLPISSTLLSMATPQYTTASVANATAFQPNFVIPNVTVLDGPVISPAPGNHLLMNFVQQEIFIDEKFVGNVIGKDGKHINSVKESTGCSIIIQDPVEGSSERRLTIRGTFMASQAAIMLISNKIEIDRSNAERKRRSPL

No constants are given. Whether binding was seen depends on the method and setting. Binding seen in cells or lysates may run through a third protein. A yes stands for co-enrichment or nearness to the bait. Other partners may have been found. For part of these data: Tags and fused reporters may be left off the sequences shown.
